Values quoted from earlier work in publication PMC9187652, “Investigating the ligand agonism and antagonism at the D2long receptor by dynamic mass redistribution” (Scientific Reports, 2022).

Biological target: D2long receptors
Details: cited from earlier work

## O=C1CCc2ccc(OCCCCN3CCN(c4cccc(Cl)c4Cl)CC3)cc2N1 [Aripiprazole, aripiprazole]
  pEC50 (DMR), obtained by conversion of the reported EC50 value: 6.23
